According to patent US12281329B2, “Compositions and methods for immune cell modulation in adoptive immunotherapies” (Fate Therapeutics, Inc., priority 2016, dated 2025):
At least one compound was matched to its structure with a doubt left.

System: T cells
Assay: In vitro T cell culture compound screen, flow cytometry for CCR7+CD62L+ cells
Type: cell-based, human
Settings: for CD4 Hit / CD8 Hit: 10 μM, about 6 days, anti-CD3/anti-CD28 beads, viability and cell number Z-score > −1; for CD4 Hit: hit: Z-score > +2 for percent or relative number CCR7+CD62L+ in viable CD4+; for CD8 Hit: hit: Z-score > +2 for percent or relative number CCR7+CD62L+ in viable CD8+
Source text: In Vitro T Cell Culture. Fresh leukopaks (AllCells, Alameda, CA) were obtained from healthy donors, from which T cells were negatively selected using the EasySep Human T cell Enrichment Kit (Stem Cell Technologies, Vancouver, Canada). The freshly isolated T cells were aliquoted and cryopreserved. On the day the screens were initiated, T cells were thawed and washed into X-Vivo 15 with 5% human AB serum, IL-2, pen/strep, and additional supplements. Cells were dispensed into flat-bottom 384-well plates at 5×10^5 cells/ml with anti-CD3/Anti-CD28 dynabeads (ThermoFisher, Waltham, MA) at a 3:1 bead-to-cell ratio. Individual compounds were added at a final concentration of 10 μM to each well from column 3 to column 22 of each plate. Positive and negative controls were added to additional wells. Cells were incubated for about 6 days at 37 degrees with 5% CO2.
Flow Cytometry. On Day 6 of culture, cells were stained with a fixable viability marker and fluorophore-conjugated antibodies: CD3, CD4, CD8, CD45RA, CD45RO, CD62L, CCR7, CD27, and CD122 (BD Biosciences, San Jose, CA; and BioLegend, San Diego, CA). Fluorescent absolute counting beads (Spherotech, Lake Forest, IL) were added just prior to acquisition. Data acquisition was performed on a BD Fortessa X-20 (BD Biosciences) and data were analyzed using Treestar software (FlowJo, Ashland, OR) and Spotfire (Tibco, Boston, MA).
These cells are characterized by expression of CCR7 and CD62L. Therefore, cells co-expressing both of these identifying markers were evaluated. Within the viable CD4+ population and viable CD8+ population, the percent of cells co-expressing CCR7 and CD62L was determined. The expression of either CD62L or CCR7 on T cells, as indicative of the desired T cell subsets, have been described as having favorable functional characteristics for CAR-T cell therapy, and potentially other adoptive T cell therapies.
The number of events in each of these gates relative to the number of absolute counting beads in each sample was calculated, defining a relative measure of the absolute number of naïve, stem cell memory, or central memory T cells within the CD4+ and/or CD8+ populations. A z-Score relative to the screened compound samples within each 384-well plate was calculated for each of these four values: 1) percent CCR7+CD62L+ in CD4+, 2) percent CCR7+CD62L+ in CD8+, 3) absolute relative number of CCR7+CD62L+ in CD4+, and 4) absolute relative number of CCR7+CD62L+ in CD8+(FIGS. 1A and 1B). Z-scores were also calculated for the percent viability of all cells within each sample and the relative absolute number of cells within each sample. A “Z-Score” is a statistical measurement of a score's relationship to the mean in a group of scores. AZ-score of 0 means the score is the same as the mean. AZ-score can also be positive or negative, indicating whether it is above or below the mean and by how many standard deviations.

[1] = at least in viable CD8+ population

SMILES | CD4 Hit | number or ratio of cells co-expressing CCR7 and CD62L [1] | CD8 Hit | number or ratio of cells co-expressing CCR7 and CD62L (in both viable CD4+ population and viable CD8+ population)
CO[C@H]1C[C@@H]2CC[C@@H](C)[C@@](O)(O2)C(=O)C(=O)N2CCCC[C@H]2C(=O)O[C@H]([C@H](C)C[C@@H]2CC[C@@H](O)[C@H](OC)C2)CC(=O)[C@H](C)/C=C(\C)[C@@H](O)[C@@H](OC)C(=O)[C@H](C)C[C@H](C)/C=C/C=C/C=C/1C [rapamycin] | CD4 | increased |  | 
c1cc(-c2cnn3cc(-c4ccc(OCCN5CCCCC5)cc4)cnc23)ccn1 [Dorsomorphin] | CD4 |  | CD8 | increased
Nc1nc(F)nc2c1ncn2[C@@H]1O[C@H](CO)[C@@H](O)[C@@H]1O [Fludarabine] |  | increased | CD8 | 
